The text below walks through data of article PMC8604998.

Chains of the proteins cited; added tags and fusions are not shown.
UniProt Q9UJY4: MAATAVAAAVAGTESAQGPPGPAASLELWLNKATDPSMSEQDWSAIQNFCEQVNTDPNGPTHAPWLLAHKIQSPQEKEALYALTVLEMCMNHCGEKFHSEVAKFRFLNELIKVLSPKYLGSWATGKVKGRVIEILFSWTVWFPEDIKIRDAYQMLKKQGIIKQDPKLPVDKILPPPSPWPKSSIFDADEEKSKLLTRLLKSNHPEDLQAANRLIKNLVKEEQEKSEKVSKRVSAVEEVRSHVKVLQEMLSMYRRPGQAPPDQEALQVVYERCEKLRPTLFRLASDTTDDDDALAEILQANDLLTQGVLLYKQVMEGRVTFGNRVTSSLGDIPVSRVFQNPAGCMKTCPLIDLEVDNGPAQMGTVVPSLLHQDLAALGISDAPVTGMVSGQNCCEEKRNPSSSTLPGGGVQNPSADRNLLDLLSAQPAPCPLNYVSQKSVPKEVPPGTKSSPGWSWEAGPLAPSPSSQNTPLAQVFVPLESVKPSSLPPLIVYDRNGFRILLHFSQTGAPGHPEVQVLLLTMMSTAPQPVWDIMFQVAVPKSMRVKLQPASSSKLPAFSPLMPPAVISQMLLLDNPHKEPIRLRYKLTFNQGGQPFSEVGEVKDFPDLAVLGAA

The target of the assay is epidermal growth factor receptor (EGFR), endogenous in ARPE-19 cells (human (endogenous in ARPE-19)) (UniProt P00533). Nature of the assay: affinity purification with mass spectrometry; ARPE-19 lysate (PBS, 1% Triton X-100), steady-state culture with 10% FBS; sepharose beads conjugated with anti-EGFR or control IgG, 20-24 h at 4 °C, six washes; nLC-MS/MS of the eluate.

No constants are given. Whether binding was seen depends on the method and setting. In cells and extracts the contact can be indirect. A yes stands for co-enrichment or nearness to the bait. Other partners may have been found.

Turning to “Golgi-localized, γ-adaptin ear-containing, ADP ribosylation factor-binding protein 2 (GGA2) (from UniProt Q9UJY4 1-613)”, the binding entry is “binds”.
